In PubChem BioAssay AID2685 (National Center for Advancing Translational Sciences (NCATS), 2010):
Some of the results follow. These are further read-outs of the screen, such as a control signal, another cell line or another target. No call is given for them. Most of these compounds were active or inconclusive in the main read-out, so they are no random draw. The note in brackets gives the kind of curve behind each potency; many fits are weak.

Assay: qHTS Assay for Lipid Storage Modulators in Drosophila S3 Cells;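 as to cell number change: cells counted by Cell Tracker Red CMTPX staining in the red channel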
Conditions: BODIPY lipid droplet fluorescence, 18-24 h; for cell number change: measured here: cell count max response, cells fed with added oleic acid
How it was run: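 Drosophila S3 cells got compounds at several concentrations plus oleic acid (400 uM solution). Laser-scanning cytometry with 488 nm excitation read lipid droplets at 500-530 nm and cells at 575-640 nm. Percent activity was relative to 20 uM Triacsin C.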

[1] = measured here: lipid fluorescence (Fed channel) AC50, cells fed with added oleic acid
[2] = measured here: cell number channel AC50, cells fed with added oleic acid

| Structure (SMILES) | cell number change | AC50 [1] | AC50 [2] |
| --- | --- | --- | --- |
| COC(=O)c1ccccc1NC(=S)NC(=O)C1CCCCC1 | 15.4% | 29.1 µM [rising, single point] | – |
| Cc1ccc2nc(-c3ccncc3)[nH]c2c1 | 6.04% | – | – |
| O=C(CSc1nccn(-c2ccc(F)c(Cl)c2)c1=O)NC1CCCC1 | -10.8% | – | 2.31 µM [rising, single point] |
| O=C(CC(=O)c1ccccc1)Nc1cc(C(F)(F)F)ccc1Cl | 5.68% | 3.66 µM [rising, partial curve, poor fit] | – |
| COc1ccccc1C(=O)Nc1ccnn1C1CCN(Cc2ncc[nH]2)CC1 | -23.4% | – | – |
| COc1ccc(OC)c(NC(=O)C2CCCCC2)c1 | 0.47% | 20.6 µM [rising, partial curve] | – |
| COc1ccc(C2=NN(C(=O)CSc3nc4ncc(Cl)cc4[nH]3)C(c3ccco3)C2)cc1 (configuration not stated) | 9.65% | – | – |
| CCOc1ccc(N=Cc2c(O)n(-c3cccc(C)n3)c(=O)c3ccccc23)cc1 | -2.69% | – | – |
| O=c1ccc2cc(S(=O)(=O)N3CCN(c4ccccc4)CC3)ccc2[nH]1 | -16.7% | 0.731 µM [rising, single point] | – |
| CN1CCN(Cc2cc(COCc3ccccc3)c3cccnc3c2O)CC1 | -14.3% | 2.59 µM [falling, single point] | – |
| NS(=O)(=O)c1ccc(NC(=O)Nc2ccc3c(c2)OCO3)cc1 | – | 3.26 µM [rising, full curve] | – |
| O=C(NC(=S)NCc1cccnc1)c1ccccc1 | 22.6% | – | – |
| COc1ccccc1NC(=O)c1sc2ncn(CC(=O)Nc3ccccc3)c(=O)c2c1C | 109% | 6.51 µM [rising, single point] | 20.6 µM [rising, partial curve] |
| O=C(CCN1C(=O)CSc2ccccc21)Nc1cccc(C(F)(F)F)c1 | 3.19% | 0.116 µM [rising, full curve, poor fit] | – |
| CCOc1ccc2ccccc2c1C(=O)N1CCOCC1 | -86.1% | – | 29.1 µM [falling, single point] |
| Cc1nc(C(=O)NNC(=O)c2ccc(C(F)(F)F)cc2)cs1 | -8.26% | – | 0.00461 µM [falling, full curve, poor fit] |
| CC(C)(C)n1nc2c(c1NC(=O)Cc1ccccc1)CS(=O)(=O)C2 | -51.3% | 5.8 µM [falling, full curve] | 5.8 µM [falling, full curve] |
| CCNC(=S)Nc1cc(OCC)c(N2CCOCC2)cc1OCC | – | 0.517 µM [rising, full curve, poor fit] | – |
| CC1=CC(C)(C)NC(=S)N1c1ccc2ccccc2c1 | -47.9% | 16.4 µM [falling, single point] | 2.59 µM [falling, full curve] |
| O=S(=O)(c1cccc(-c2csc(-c3ccccc3)n2)c1)N1CCOCC1 | -36.2% | – | 29.1 µM [falling, partial curve, poor fit] |
| CC(=O)c1ccc(NC(=O)NC2CCCc3ccccc32)cc1 (configuration not stated) | 15.5% | 3.55 µM [rising, single point] | – |
| Cc1cc(N2CCC(N(C)C3CCCC3)CC2)nc2cc(O)ccc12 | -16.3% | 0.731 µM [falling, full curve] | – |

An excerpt of these results, with each value named:
Cc1ccc2nc(-c3ccncc3)[nH]c2c1
  cell number change: 6.04%
CC1=CC(C)(C)NC(=S)N1c1ccc2ccccc2c1
  cell number change: -47.9%; AC50 [1]: 16.4 µM [falling, single point]; AC50 [2]: 2.59 µM [falling, full curve]

Continuation:

| Structure (SMILES) | cell number change | AC50 [1] | AC50 [2] |
| --- | --- | --- | --- |
| OCC1(Cc2ccccc2)CCN(Cc2ccccn2)CC1 | -1.51% | 0.0651 µM [falling, full curve, poor fit] | – |
| CC(=O)Nc1c(F)c(F)c(F)c(F)c1F | 16.5% | – | – |
| O=C(CN1CCN(c2ccccc2O)CC1)Nc1cccnc1Cl | -5.95% | – | 4.61 µM [falling, single point] |
| COc1ccc(Cl)cc1C(=O)O/N=C(\N)c1ccccn1 | -18.2% | – | – |
| CCc1cc(=O)oc2cc(C)cc(OC(C)C(=O)NCc3cccnc3)c12 (configuration not stated) | -0.597% | 18.4 µM [falling, single point] | – |
| CCCCC(=O)N1CCN(c2nc3ccc(Br)cc3s2)CC1 | -5.1% | – | – |
| COCCNC(=O)c1ccc(CS(=O)(=O)c2ccccc2)o1 | -17.6% | 4.61 µM [falling, full curve, poor fit] | – |
| CC1(C)CC(NC(=O)CCC2CCCC2)CC(C)(C)N1 | -32% | 18.4 µM [falling, partial curve] | 1.64 µM [falling, full curve] |
| CCOC(=O)c1c(/N=C/C2=C(O)CCCC2=O)sc(C)c1C | – | 25.9 µM [rising, single point] | – |
| O=C(c1ccc(COc2ccccc2)o1)N1CCN(S(=O)(=O)c2ccccc2Cl)CC1 | -18.4% | 29.1 µM [falling, single point] | – |
| O=C(c1ccc(Cl)c(S(=O)(=O)NCc2ccco2)c1)N1CCN(c2ccccc2F)CC1 | – | – | 4.11 µM [rising, single point] |
| CCOC(=O)c1[nH]c2ccc(OC)cc2c1NC(=O)N1CCOCC1 | 3.31% | 0.651 µM [rising, single point] | – |
| O=C(c1c(Cl)cccc1Cl)N1CCN(c2ccccn2)CC1 | 58.4% | – | – |
| CC(C)c1ccc(NC(=O)CCNC(=O)Cn2cnc3ccccc3c2=O)cc1 | 30.8% | – | 16.4 µM [rising, partial curve, poor fit] |
| O=C(CCCCCn1c(=S)[nH]c2ccsc2c1=O)NC1CCCCC1 | 11.9% | 0.731 µM [rising, single point] | – |
| CC(=O)Nc1cccc(C(=O)Nc2nc(C)cs2)c1 | 22.2% | – | 6.51 µM [rising, single point] |
| CCc1ccc2[nH]c(=O)c(CN(Cc3ccccc3OC)C(=O)Nc3ccccc3OC)cc2c1 | -14.9% | – | – |
| COc1ccc(C(=O)COC(=O)CCNS(=O)(=O)c2ccc(NC(C)=O)cc2)c(OC)c1 | 111% | 29.1 µM [rising, partial curve] | 29.1 µM [rising, single point] |
| O=C(O)c1cc2c(cc1NC(=O)c1c(F)cccc1F)OCCCO2 | 3.33% | – | – |
| CSc1cc(C)c(OCC(=O)Nc2c(C)nn(C)c2C)c(C)c1 | 13.5% | 25.9 µM [falling, single point] | – |
| Cc1onc(-c2ccccc2)c1C(=O)NC(=S)NNC(=O)c1ccccc1O | -54.2% | 0.00461 µM [falling, full curve, poor fit] | 25.9 µM [falling, partial curve, poor fit] |
